Laboratory results taken from PubChem BioAssay AID2685 (National Center for Advancing Translational Sciences (NCATS), 2010).
Some of the results follow. These are further read-outs of the screen, such as a control signal, another cell line or another target. No call is given for them. Compounds called inactive in the main read-out are mostly missing here. Potencies come from curve fits of mixed quality, noted in brackets.

Test: qHTS Assay for Lipid Storage Modulators in Drosophila S3 Cells;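 on cell number change: cells counted by Cell Tracker Red CMTPX staining in the red channel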
Settings: BODIPY lipid droplet fluorescence, 18-24 h; for cell number change: measured here: cell count max response, cells fed with added oleic acid
In short: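 Drosophila S3 cells got compounds at several concentrations plus oleic acid (400 uM solution). Laser-scanning cytometry with 488 nm excitation read lipid droplets at 500-530 nm and cells at 575-640 nm. Percent activity was relative to 20 uM Triacsin C.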

[1] = measured here: cell number channel AC50, cells fed with added oleic acid
[2] = measured here: lipid fluorescence (Fed channel) AC50, cells fed with added oleic acid

| Compound | cell number change | AC50 [1] | AC50 [2] |
| --- | --- | --- | --- |
| CCCCOc1ccc(C(=O)N2CCNC(=O)C2)cc1 | -32.4% | 0.013 µM [falling, full curve, poor fit] | 6.51 µM [rising, single point] |
| CN(CC(=O)NC1CCCCCC1)S(=O)(=O)c1ccc(F)cc1 | -1.13% |  | 20.6 µM [rising, partial curve] |
| Cc1ccc(/C=C2/Sc3ccc(C(=O)NCCN4CCOCC4)cc3NC2=O)cc1 | 2.85% |  |  |
| O=S(=O)(CCC1CCCCN1)c1ccccc1 (stereo not drawn) | 19.1% |  |  |
| COc1ccc(NC(=S)N2CCN(S(=O)(=O)c3ccccc3)CC2)cc1OC | -0.99% |  | 0.58 µM [rising, single point] |
| Cc1cc(F)ccc1S(=O)(=O)N1CCCOC1CNC(=O)C(=O)NCCc1ccccc1 (stereo not drawn) | 23.4% |  | 2.06 µM [rising, full curve] |
| NCCCCCC(=O)Nc1ccncc1 | -44.6% | 18.4 µM [falling, single point] | 29.1 µM [falling, partial curve, poor fit] |
| Cc1noc(C)c1COc1cccc(C(=O)N2CCN(C/C=C/c3ccccc3)CC2)c1 | -2.44% |  | 16.4 µM [rising, partial curve] |
| Fc1ccc(-c2nc3nc4ccccc4nc3n2Cc2ccco2)cc1 | -24.9% |  |  |
| C#CCCCCCCCCC(=O)NCCCC |  | 6.51 µM [falling, single point] |  |
| Cc1ccc(C(=O)NCCCN2CCOCC2)c(Cl)c1 | -1.46% |  |  |
| COc1cc(C(C)=O)ccc1OCc1cc(C(=O)N2CCSCC2)no1 | 37.6% | 0.231 µM [rising, full curve, poor fit] |  |
| CCOc1ccc2nc(NC(=O)CS(=O)(=O)c3ccccc3)sc2c1 |  |  | 0.651 µM [rising, single point] |
| CC(=O)Nc1ccc(CN2CCN(CC(C)C)C(CCO)C2)cc1 (stereo not drawn) | 1.94% |  | 29.1 µM [rising, single point] |
| COc1ccc(NC(=O)c2ccc3c(c2)OCO3)cc1[N+](=O)[O-] | -50.5% | 16.4 µM [falling, single point] |  |
| S=C(NCc1ccco1)N1CCN(c2ccccc2Cl)CC1 | 45.8% | 3.26 µM [rising, full curve] | 3.66 µM [rising, partial curve, poor fit] |
| O=C(Nc1ccc(N2CCCC2)cc1)c1cc2ccccc2o1 | -52.5% | 5.17 µM [falling, partial curve] | 0.731 µM [falling, full curve, poor fit] |
| CN(C)c1ccc(C(c2ccc(N(C)C)cc2)c2ccc([N+](=O)[O-])cc2)cc1 | -59.5% | 14.6 µM [falling, partial curve, poor fit] | 18.4 µM [falling, single point] |
| COC(=O)C(CC(=O)c1ccc(Br)cc1)n1ccnc1 (stereo not drawn) | -157% | 29.1 µM [falling, partial curve] | 0.58 µM [falling, single point] |
| C[C@H](NC(N)=O)C(=O)OCC(=O)Nc1ccc(OC(F)F)cc1 | 64.3% |  |  |

2 of the compounds above, with tabs:
Compound	cell number change	AC50 [1]	AC50 [2]
O=S(=O)(CCC1CCCCN1)c1ccccc1 (stereo not drawn)	19.1%		
C[C@H](NC(N)=O)C(=O)OCC(=O)Nc1ccc(OC(F)F)cc1	64.3%		

Given in CSV form: 3 of the compounds above
Compound,cell number change,AC50 [1],AC50 [2]
CCCCOc1ccc(C(=O)N2CCNC(=O)C2)cc1,-32.4%,"0.013 µM [falling, full curve, poor fit]","6.51 µM [rising, single point]"
CN(CC(=O)NC1CCCCCC1)S(=O)(=O)c1ccc(F)cc1,-1.13%,,"20.6 µM [rising, partial curve]"
Cc1ccc(/C=C2/Sc3ccc(C(=O)NCCN4CCOCC4)cc3NC2=O)cc1,2.85%,,

(further entries)

| Compound | cell number change | AC50 [1] | AC50 [2] |
| --- | --- | --- | --- |
| CC(OC(=O)c1cccc(-n2cnnn2)c1)c1nc2ccccc2c(=O)[nH]1 (stereo not drawn) | -2.08% |  | 18.4 µM [rising, partial curve, poor fit] |
| O=C(CC(Nc1ccc(F)cc1)C(=O)OCC(=O)c1cccs1)c1ccccc1 (stereo not drawn) | -19.4% |  | 29.1 µM [falling, single point] |
| COc1ccc(-c2cn3cc(C(F)(F)F)cc(Cl)c3n2)cc1 | -72.9% | 1.46 µM [falling, partial curve] | 0.651 µM [falling, single point] |
| CCOc1ccc(OCC(=O)OCC(=O)N(CC(C)C)c2c(N)n(Cc3ccccc3)c(=O)[nH]c2=O)cc1 | 1.04% | 0.058 µM [falling, full curve, poor fit] |  |
| O=C(NCc1ccc2c(c1)OCO2)c1ccc2c(c1)OCCO2 | 56.5% | 18.4 µM [rising, single point] |  |
| O=C(O)c1ccc(CNC(=O)c2ccc3c(c2)OCCO3)cc1 | 28.6% |  | 29.1 µM [rising, single point] |
| Cc1cccc(N2CCN(CCCNC(=O)C3CCCN(c4ncnc5c4nc4n5CCCCC4)C3)CC2C)c1 (stereo not drawn) | 16.4% |  | 0.116 µM [rising, full curve, poor fit] |
| C=CCNc1nc(C(=O)OCC(=O)c2ccc(C)c([N+](=O)[O-])c2)cs1 | -0.758% | 0.58 µM [rising, single point] | 6.51 µM [rising, single point] |
| CCN(C1CCS(=O)(=O)C1)S(=O)(=O)c1cccc([N+](=O)[O-])c1 (stereo not drawn) | -8.98% |  | 0.092 µM [falling, full curve, poor fit] |
| COc1ccc(S(=O)(=O)N2CCOCC2)cc1NC(=O)Cc1ccc(Cl)c(Cl)c1 |  | 0.651 µM [falling, full curve] |  |
| O=C(COc1cccnc1[N+](=O)[O-])NCCc1ccc(F)cc1 | 9.93% |  | 13 µM [rising, partial curve] |
| CSc1ccc(S(=O)(=O)NCC(=O)OC2CCOC2=O)cc1[N+](=O)[O-] (stereo not drawn) | -7% | 0.0731 µM [falling, full curve, poor fit] |  |
| C=CCC(=O)NC1CCCc2c1cnn2-c1cc(F)cc(F)c1 (stereo not drawn) | -37.9% | 0.206 µM [falling, full curve] |  |
| O=C(NNc1nc(-c2ccc(Cl)cc2)cs1)c1ccco1 | -76.5% | 16.4 µM [falling, partial curve] | 29.1 µM [falling, single point] |
| COc1ccccc1-n1cnnc1SCC(=O)Nc1cccc(S(=O)(=O)N2CCCCC2)c1 | -11.2% | 6.51 µM [rising, single point] |  |
| CCCC(=O)NC(Nc1cc(C(F)(F)F)ccc1Cl)C(Cl)(Cl)Cl (stereo not drawn) | -53.2% | 29.1 µM [falling, single point] | 1.84 µM [falling, partial curve] |
| COc1ccc(C2=NN(C(=O)/C=C/c3ccccc3)C(c3ccccc3)C2)c(OC(C)=O)c1 (stereo not drawn) | -20.1% |  | 29.1 µM [rising, single point] |
| Cc1csc(=O)n1CCC(=O)O | 19.3% |  |  |
| O=C(COC(=O)c1ccco1)Nc1cccc(Br)c1 | -13.9% |  | 0.517 µM [falling, full curve] |
| Cc1cc(C)cc(C(=O)NCC(=O)OCC(=O)NCc2ccco2)c1 | -9.09% |  | 6.51 µM [falling, single point] |

| Compound | cell number change | AC50 [1] | AC50 [2] |
| --- | --- | --- | --- |
| CCN1CCN(C(=O)CN(C)S(=O)(=O)c2ccc(Cl)cc2)CC1 | -38.7% | 3.66 µM [falling, full curve] | 3.66 µM [falling, full curve] |
| CCCC(=O)Nc1c(-c2ccc(OC)cc2)c(=O)c2ccccc2n1C |  | 0.00461 µM [rising, full curve, poor fit] |  |
| CCN(c1ccccc1)S(=O)(=O)c1ccc(OCC(=O)N2CCCC2)cc1 | -43.1% | 0.92 µM [falling, partial curve] | 1.84 µM [falling, partial curve] |
| C#CCOC(=O)C(NC(=O)c1ccccc1)=C1CCCCC1 | 68.7% | 18.4 µM [rising, partial curve] | 2.31 µM [rising, partial curve, poor fit] |
| O=C(N/N=C/c1ccc(O)cc1)c1cccc(C(F)(F)F)c1 | 9.15% |  |  |
| Nc1cc2c(cc1[N+](=O)[O-])OCCOCCOCCO2 | 9.23% |  | 29.1 µM [rising, single point] |
| CCOc1ccccc1NC(=O)COC(=O)c1ccc(S(=O)(=O)N2CCCC2)cc1 | -83.5% | 23.1 µM [falling, single point] |  |
| CCC(C)[C@H](NC(=O)N1CCn2c1nc1ccccc12)C(=O)NCCc1ccc(OC)c(OC)c1 (stereo partly drawn) | 13.1% |  |  |
| Cc1ccc(NC(=O)c2cnn(-c3ccccc3)c2C)c(C)c1 | 11.9% |  |  |
| CCCCc1nc(SCC(=O)N2CCOCC2)c2c(=O)n(C)c(=O)n(C)c2n1 | -36.3% | 35.5 µM [falling, single point] | 12.6 µM [falling, single point] |
| COC(=O)c1ccn(C(=O)c2ccc(Cl)cc2)n1 | 0.955% |  | 0.411 µM [falling, full curve] |
| CCNC(=S)N(CCc1c(C)[nH]c2ccccc12)Cc1cccnc1 | 14.9% |  | 0.00517 µM [rising, full curve, poor fit] |
| CCC(=O)N1c2ccc(S(=O)(=O)N3CCN(c4ccc([N+](=O)[O-])cc4)CC3)cc2CC1C (stereo not drawn) | -21.1% |  | 29.1 µM [falling, single point] |
| Fc1cccc(Cc2noc(CN3CCC(c4ccncc4)CC3)n2)c1 | -22.2% |  | 32.6 µM [falling, single point] |
| CCN(CC(=O)Nc1cc(S(=O)(=O)N2CCOCC2)ccc1C)Cc1ccccc1 | -50% | 1.3 µM [falling, full curve] |  |
| CCC(C(=O)Nc1ccc(C(=O)O)cc1NC(=O)C(CC)c1ccccc1)c1ccccc1 (stereo not drawn) | -1.75% |  | 0.116 µM [rising, full curve, poor fit] |
| COc1ccccc1NC(=O)c1cccc(NC(=O)c2ccco2)c1 | -29.7% |  |  |
| CC1(C)CC(=O)C2=C(C1)NC1=C(C(=O)c3ccccc31)C2c1ccccc1 (stereo not drawn) | -1.52% |  | 10.3 µM [rising, partial curve, poor fit] |
| CN1CCN(C(=O)/C=C/c2c(F)cccc2Cl)CC1 | 1.49% |  | 29.1 µM [rising, single point] |
